Earlier results, collected in patent publication US20030187038A1, “Fibrinogen-lowering agents” (priority 2000, published 2003).
At least one compound was matched to its structure with a doubt left.

Tested on: hepatic fibrinogen mRNA
Settings: rats; background art; cited from earlier work

CC(C)OC(=O)C(C)(C)Oc1ccc(C(=O)c2ccc(Cl)cc2)cc1 [fenofibrate]
Effect on hepatic fibrinogen mRNA levels: decreased hepatic fibrinogen mRNA levels
